The target in test [1] is T1, GST-DmP53 (Drosophila melanogaster) (UniProt Q9N6D8).
T1 sequence: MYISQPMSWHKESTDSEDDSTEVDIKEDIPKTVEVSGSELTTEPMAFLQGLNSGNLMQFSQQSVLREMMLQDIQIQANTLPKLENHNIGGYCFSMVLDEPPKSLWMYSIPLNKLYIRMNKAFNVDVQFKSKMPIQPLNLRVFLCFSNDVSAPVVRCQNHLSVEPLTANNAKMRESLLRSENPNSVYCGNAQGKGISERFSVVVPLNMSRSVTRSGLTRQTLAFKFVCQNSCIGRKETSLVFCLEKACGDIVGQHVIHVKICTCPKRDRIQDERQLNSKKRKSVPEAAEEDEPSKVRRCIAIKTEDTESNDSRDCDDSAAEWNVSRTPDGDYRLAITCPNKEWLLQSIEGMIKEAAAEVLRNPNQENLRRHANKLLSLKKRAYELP
Nature of the test: pull-down; 1 ug GST or GST-DmP53 on glutathione-agarose beads, 500 ul lysate of transfected cells (RIPA), 4°C overnight, washed 4 times with RIPA buffer; blot with anti-Flag M2; only the target purified.

Sequences of proteins named here, by UniProt entry; tags and fusion partners are left off. A change or cut given only in a name is not applied to a line headed by its entry.
UniProt Q6Y598: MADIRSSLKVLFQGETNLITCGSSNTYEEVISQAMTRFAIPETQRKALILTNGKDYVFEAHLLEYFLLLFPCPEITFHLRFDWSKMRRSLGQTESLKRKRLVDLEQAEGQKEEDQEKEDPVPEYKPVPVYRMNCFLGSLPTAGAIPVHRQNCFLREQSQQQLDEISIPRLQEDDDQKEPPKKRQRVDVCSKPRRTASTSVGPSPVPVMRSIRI

Test [2] addresses Corp-GFP-Flag (Drosophila melanogaster) (UniProt Q6Y598). Nature of the test: co-IP; Corp-GFP-FLAG constructs co-transfected with HA-DmP53 in HeLa cells; IP with anti-Flag, blot with anti-HA.
Test [3] addresses Corp(Δ14–54)-GFP-FLAG (Drosophila melanogaster). The description is as above.

These are yes or no findings as the source states them, for the method shown. Binding seen in cells or lysates may run through a third protein. Binding calls can cover weak binding; strength is not graded here. Where a sequence is shown, tags or fusion partners need not be part of it.

Consider Corp-GFP-Flag (from UniProt Q6Y598), for which, in test [1], the binding result is reported as “binds”.

B1: HA-DmP53 (protein, UniProt Q9N6D8 1-385)
chain: MYISQPMSWHKESTDSEDDSTEVDIKEDIPKTVEVSGSELTTEPMAFLQGLNSGNLMQFSQQSVLREMMLQDIQIQANTLPKLENHNIGGYCFSMVLDEPPKSLWMYSIPLNKLYIRMNKAFNVDVQFKSKMPIQPLNLRVFLCFSNDVSAPVVRCQNHLSVEPLTANNAKMRESLLRSENPNSVYCGNAQGKGISERFSVVVPLNMSRSVTRSGLTRQTLAFKFVCQNSCIGRKETSLVFCLEKACGDIVGQHVIHVKICTCPKRDRIQDERQLNSKKRKSVPEAAEEDEPSKVRRCIAIKTEDTESNDSRDCDDSAAEWNVSRTPDGDYRLAITCPNKEWLLQSIEGMIKEAAAEVLRNPNQENLRRHANKLLSLKKRAYELP
With B1, the binding entry in test [2] and in test [3] was “binds” throughout.

(Values after paper PMC4521751.)
